# At least one compound was matched to its structure with a doubt left.
# What was measured:
# Format in all cases: in vivo, ICR mice
# Aβ oligomer-treated mice = test: Morris water maze test (spatial cognition); conditions: acyclovir 500 mg/kg, DXMT 2 mg/kg, donepezil 2.5 mg/kg
# Experimental: (§1) The acyclovir, DXMT and donepezil were dissolved in water.
# (§2) Mice recover for 3 d without any experiments.
# The spatial memory is assessed with the Morris water maze test^10. The Morris water maze is a circular pool (110 cm in diameter) filled with water at a temperature of 23±2° C., and has a platform. Except on a last day, the platform is always placed in a center of a northwest quadrant. Swimming tracks are recorded by a video recorder connected to a computer. Each mouse is trained on positioning the platform over a four-day trial, and learning is assessed daily for four consecutive days. The time mice take to enter a hidden platform is measured. On the last day, the platform is removed and the mice are trained to swim for 90 sec for a probe trial. The swimming times are recorded in the four quadrants of the pool. A tendency to appear in the quadrant occupied before the platform indicates a spatial memory ability.
# interleukin-6 (IL-6) = test: ELISA of IL-6 in mouse hippocampus; conditions: acyclovir 500 mg/kg, DXMT 2 mg/kg, donepezil 2.5 mg/kg
# Experimental: as §1, §2
# (§3) One day after the Morris water maze test, mice are deeply anesthetized and transcardially perfused with an ice-cold saline. The brain is quickly dissected. Hippocampal proteins are extracted and stored at −80° C. prior to use in a Western blotting assay (4 mice per group) and an enzyme-linked immunosorbent assay (ELISA, 3 mice per group). Intact brain tissues (3 mice per group) are stored in a formalin solution at […] prior to staining using immunohistochemistry (IHC).
# Determination was conducted on concentrations of interleukin-6 (IL-6) and tumor necrosis factor-α (TNF-α) in mouse hippocampus using freshly prepared brain tissues. Brain samples are homogenized in a 0.1M phosphate buffered saline. A resulting brain extract is centrifuged to 2,000 g at 4° C. for 15 min. Concentrations of IL-6 and TNF-α are determined with an ELISA kit (Excell Bio, Shanghai, China) according to the manufacturer's protocol. An absorbance is read.
# [1] = test system: tumor necrosis factor-α (TNF-α); test: ELISA of TNF-α in mouse hippocampus; conditions: acyclovir 500 mg/kg, DXMT 2 mg/kg
# IL-17 = test: Western blotting of IL-17 in mouse hippocampus; conditions: acyclovir 500 mg/kg, DXMT 2 mg/kg, donepezil 2.5 mg/kg
# Experimental: as §1, §2, §3
# (§4) The Western blotting assay is conducted as previously described^11. Briefly, the brain tissues from hippocampus are extracted in a lysis buffer for 1 min and centrifuged at 16,000 g for 10 min. Protein levels in a supernatant are estimated by a Bradford analysis, the proteins are separated on an SDS-polyacrylamide gel, and electrotransferred to a polyvinylidene fluoride membrane. After 2 h of incubation with 5% skim milk in TBST, incubation is conducted for 12 h with corresponding antibodies Tau, IL-17 (Santa Cruz Biotechnology, Shanghai, China), pSer396-Tau, PSD-95, and β-actin (Cell Signaling Technology, Inc., Beverly, Mass., USA). […] The data is expressed as a ratio of an optical density (OD) compared to the control and a statistical analysis.
# [2] = test system: glial fibrillary acidic protein (GFAP); test: IHC staining of GFAP (astrocyte activation) in hippocampus; conditions: acyclovir 500 mg/kg, DXMT 2 mg/kg, donepezil 2.5 mg/kg
# Experimental: as §1, §2, §3
# (§5) IHC staining is conducted according to previously reported protocols^11. Briefly, after the Morris water maze test, the brains are dissected and incubated with 4% paraformaldehyde for 1 d. Brain specimens are dehydrated, paraffin-embedded, and sliced into 4-micron slices. Hippocampal sections are dewaxed and rehydrated. Treatment with 3% H2O2 is conducted for 10 min to inhibit a cellular peroxidase activity. Sections are incubated overnight at 4° C. with primary antibodies to a CD45 antigen and a glial fibrillary acidic protein (GFAP). […] The sections are labeled with DAB and analyzed colorimetrically. A mean OD of the area is analyzed using Image Pro 6.0 (Media Cybernetics Inc., MD, USA). […] Positive area and OD are determined by measurements on randomly selected microscope fields on each slide. […]
# CD45 = test: IHC staining of CD45 (microglia activation) in hippocampus; conditions: acyclovir 500 mg/kg, DXMT 2 mg/kg
# Experimental: as §1, §2, §3, §5
# PSD-95 = test: Western blotting of PSD-95 in mouse hippocampus; conditions: acyclovir 500 mg/kg, DXMT 2 mg/kg, donepezil 2.5 mg/kg
# Experimental: as §1, §2, §3, §4
# pSer396-Tau = test: Western blotting of pTau in mouse hippocampus; conditions: acyclovir 500 mg/kg, DXMT 2 mg/kg
# Experimental: as §1, §2, §3, §4
smiles,measurement,setting,value
"C[C@@H]1C[C@H]2[C@@H]3CCC4=CC(=O)C=C[C@]4(C)[C@@]3(F)[C@@H](O)C[C@]2(C)[C@@]1(O)C(=O)CO [DXMT, Dexamethasone]",time to find the hidden platform (latency) compared with the Aβ group,"Aβ oligomer-treated mice; last day of training, gavage 13 d",do not show a better performance
same,time in the target area compared with the Aβ group,"Aβ oligomer-treated mice; probe trial, platform removed, 90 sec",do not show a better performance
same,Aβ-induced increase in IL-6 expression compared with the Aβ group,interleukin-6 (IL-6),reduce
same,Aβ-induced increase in TNF-α expression compared with the Aβ group,[1],reduce
same,Aβ-induced increase in IL-17 expression compared with the Aβ group,IL-17,reduced
same,Aβ-induced increase in the mean OD of GFAP compared with the Aβ group,[2],significantly reduce
same,Aβ-induced increase in CD45 mean OD compared with the Aβ group,CD45,significantly reduce
same,expression of PSD-95 compared with the Aβ group,PSD-95,does not alter the expression of PSD-95
same,Aβ-induced increase in pTau expression compared with the Aβ group,pSer396-Tau,does not alter pTau expression
